Structures can show the parent of a compound that is named as a salt. Some of the results follow. Single values are uncertain here, since repeats match poorly.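 The human kidney-derived cells carry a stably integrated construct of eight TEAD-binding elements driving luciferase, read by luminescence in a drug-repurposing library screen. A compound counts as a hit when its signal is more than five robust Z scores above the plate mean.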
Test system: HEK293A TEAD-LUC reporter
Assay: TEAD-luciferase reporter activity (YAP activation), robust Z score vs plate; higher = stronger YAP/TEAD activation
Conditions: 24 h

SMILES | TEAD-luciferase reporter activity (compound concentration: 200 nM) | TEAD-luciferase reporter activity (compound concentration: 2 uM) | TEAD-luciferase reporter activity (compound concentration: 10 uM)
Cc1cccc(-c2ccc3c(c2)c(C(=O)C(=O)O)cn3Cc2ccc(C(C)(C)C)cc2)c1 | inactive: -0.84 | inactive: -0.909 | inactive: -1.37
O=C(O)c1ccc2c(c1)C(SCCN1CCC(Cc3ccccc3)CC1)c1ccccc1CO2 (stereo not drawn) | inactive: -0.599 | inactive: 0.266 | inactive: -0.523
CC(=O)OCCN(CCOC(C)=O)C(=O)[C@@H]1CC2c3cccc4[nH]cc(c34)C[C@H]2N(C)C1 (stereo partly drawn) | inactive: -0.201 | inactive: 2.25 | inactive: 0.314
Cc1nnc2ccc(-c3cccc(C(F)(F)F)c3)nn12 | inactive: -0.288 | inactive: 0.196 | inactive: 3.94
CCOC(=O)C1(c2ccccc2)CCN(CCc2ccc(NC(C)=O)cc2)CC1 | inactive: -0.227 | inactive: 1.38 | inactive: 1.29
O=[N+]([O-])c1ccccc1O | inactive: -0.82 | inactive: -0.949 | inactive: 0.0235
c1cncc(C2CCCCN2)c1 (stereo not drawn) [Anabasine hydrochloride] | inactive: -0.858 | inactive: -1.28 | inactive: 1.61
C[N+](C)(C)CCOC(=O)C(O)(c1ccccc1)C1CCCC1 (stereo not drawn) | inactive: 0.979 | inactive: -0.0086 | inactive: -1.53
O=C(C1CCCN1C(=O)C1CCCC1)N1CCC(N2Cc3ccccc3C2=O)CC1 (stereo not drawn) | inactive: -0.0809 | – | inactive: 0.442
Oc1ccc(C2=CCC[C@H](CN3CC=C(c4ccccc4)CC3)C2)cc1 | inactive: -0.94 | inactive: -0.649 | inactive: 0.693
OCCN(CCO)CCO [Triethanolamine] | – | inactive: 0.502 | –
OCCN(CCO)CCO | – | – | inactive: 0.0447
CCC(C)(C)C(=O)Nc1cc(CN2CCOCC2)c(C)cn1 [CB2 agonists, Adolor] | inactive: -1.16 | inactive: -1.65 | inactive: 0.146
CCOC(=O)[C@H](CCSC)NC(=O)[C@H](Cc1cccc(N(CCCl)CCCl)c1)NC(=O)[C@@H](N)Cc1ccc(F)cc1 [Ambamustine hydrochloride] | inactive: -1.46 | inactive: -0.717 | inactive: 0.203
Cc1cc2c(cc1F)nc(O)n2C1CCN(C2CCOCC2)CC1 | inactive: 0.438 | inactive: -1.08 | inactive: -2.1
F/C(COc1ccc2c(c1)[nH]c1ccccc12)=C1/CN2CCC1CC2 | inactive: -1.51 | inactive: 0.126 | inactive: 0.964
CCC1(c2ccccc2)C(=O)NC(=O)NC1=O [Barbexaclone] | inactive: -1.88 | – | active: 6.25
CCCCCCCCC(=O)NCc1ccc(O)c(OC)c1 | inactive: 1.42 | inactive: 1.53 | inactive: 2.13
CC(C)OC(=O)[C@H](C)N[P@](=S)(OC[C@H]1O[C@@H](n2ccc(=O)[nH]c2=O)[C@](C)(O)[C@@H]1O)Oc1ccccc1 | inactive: -0.311 | inactive: 0.214 | inactive: 0.607
CCCCCCCC/C=C\CCCCCCCCOP(O)(O)=S | inactive: 0.439 | inactive: 0.00994 | active: 7.37

As a working copy, part of the list above.
SMILES | TEAD-luciferase reporter activity (compound concentration: 200 nM) | TEAD-luciferase reporter activity (compound concentration: 2 uM) | TEAD-luciferase reporter activity (compound concentration: 10 uM)
CCOC(=O)C1(c2ccccc2)CCN(CCc2ccc(NC(C)=O)cc2)CC1 | inactive: -0.227 | inactive: 1.38 | inactive: 1.29
O=[N+]([O-])c1ccccc1O | inactive: -0.82 | inactive: -0.949 | inactive: 0.0235
c1cncc(C2CCCCN2)c1 (stereo not drawn) [Anabasine hydrochloride] | inactive: -0.858 | inactive: -1.28 | inactive: 1.61
C[N+](C)(C)CCOC(=O)C(O)(c1ccccc1)C1CCCC1 (stereo not drawn) | inactive: 0.979 | inactive: -0.0086 | inactive: -1.53
O=C(C1CCCN1C(=O)C1CCCC1)N1CCC(N2Cc3ccccc3C2=O)CC1 (stereo not drawn) | inactive: -0.0809 | – | inactive: 0.442
Oc1ccc(C2=CCC[C@H](CN3CC=C(c4ccccc4)CC3)C2)cc1 | inactive: -0.94 | inactive: -0.649 | inactive: 0.693
OCCN(CCO)CCO [Triethanolamine] | – | inactive: 0.502 | –
OCCN(CCO)CCO | – | – | inactive: 0.0447
CCC(C)(C)C(=O)Nc1cc(CN2CCOCC2)c(C)cn1 [CB2 agonists, Adolor] | inactive: -1.16 | inactive: -1.65 | inactive: 0.146
CCOC(=O)[C@H](CCSC)NC(=O)[C@H](Cc1cccc(N(CCCl)CCCl)c1)NC(=O)[C@@H](N)Cc1ccc(F)cc1 [Ambamustine hydrochloride] | inactive: -1.46 | inactive: -0.717 | inactive: 0.203
Cc1cc2c(cc1F)nc(O)n2C1CCN(C2CCOCC2)CC1 | inactive: 0.438 | inactive: -1.08 | inactive: -2.1
F/C(COc1ccc2c(c1)[nH]c1ccccc12)=C1/CN2CCC1CC2 | inactive: -1.51 | inactive: 0.126 | inactive: 0.964
CCC1(c2ccccc2)C(=O)NC(=O)NC1=O [Barbexaclone] | inactive: -1.88 | – | active: 6.25
CCCCCCCCC(=O)NCc1ccc(O)c(OC)c1 | inactive: 1.42 | inactive: 1.53 | inactive: 2.13

(continued)

SMILES | TEAD-luciferase reporter activity (compound concentration: 200 nM) | TEAD-luciferase reporter activity (compound concentration: 2 uM) | TEAD-luciferase reporter activity (compound concentration: 10 uM)
CCCCCCCCCCCCC(=O)O[C@H]1CC[C@H]2[C@@H]3CCC4=CC(=O)CCC4(C)[C@H]3CCC12C (stereo partly drawn) | inactive: 0.293 | inactive: -0.943 | inactive: 0.505
C[Se]C[C@H](N)C(=O)O [Se-Methylselenocysteine] | inactive: -0.424 | – | inactive: -0.758
OC1=Nc2ccc(Cl)cc2C(c2ccccc2Cl)=NC1 [delorazepam] | inactive: -0.84 | inactive: -0.731 | inactive: 0.483
COc1cc(CCN)cc(OC)c1OC | inactive: -1.56 | inactive: 0.024 | inactive: 2.73
C[C@@H]([C@H](O)c1ccccc1)N(C)C | inactive: -0.112 | inactive: -1.1 | inactive: -0.0864
c1ccc(-c2ccc(OC3CN4CCC3CC4)nn2)cc1 (stereo not drawn) | inactive: -0.476 | active: 5.81 | inactive: 1.71
C=C(C)[C@H]1CCC(C)=C[C@@H]1c1c(O)cc(CCC)cc1O [Cannabidivarin] | inactive: -0.198 | inactive: -0.707 | inactive: -0.598
N=C(N)NN [Pimagedine] | inactive: 1.01 | inactive: 0.0226 | inactive: 0.443
O=C(C1CCCN1C(=O)c1ccccc1)N1CCC(N2CCOCC2=O)CC1 (stereo not drawn) | inactive: 1.06 | – | inactive: 0.575
CN(C)[C@@H]1C(=O)C(C(N)=O)C(=O)[C@@]2(O)C(=O)C3C(=O)c4c(O)cccc4[C@@](C)(O)[C@H]3[C@H](O)[C@@H]12 (stereo partly drawn) [Oxytetracycline] | – | inactive: -1.38 | –
CN(C)[C@@H]1C(=O)C(C(N)=O)C(=O)[C@@]2(O)C(=O)C3C(=O)c4c(O)cccc4[C@@](C)(O)[C@H]3[C@H](O)[C@@H]12 (stereo partly drawn) | inactive: -1.17 | – | inactive: 0.5
Clc1cccc(N2CCNCC2)c1 | inactive: -1.97 | inactive: -1.28 | inactive: -0.276
C=CCONC1=Nc2ccc(Cl)cc2C(c2ccccc2Cl)=NC1 | inactive: -2.04 | inactive: -0.95 | inactive: -1.6
O=[N+]([O-])O[C@H]1CO[C@H]2[C@@H]1OC[C@H]2O[N+](=O)[O-] [Isosorbide Dinitrate] | inactive: -1.58 | – | inactive: 0.537
O=[N+]([O-])O[C@H]1CO[C@H]2[C@@H]1OC[C@H]2O[N+](=O)[O-] [Isosorbide dinitrate] | – | inactive: 1.15 | –
CCC[C@@H]1CC(=O)N([C@@H](CC)C(N)=O)C1 [brivaracetam] | inactive: 0.872 | inactive: 1.49 | inactive: 0.0815
O=S(=O)(c1ccccc1F)N1CCOc2c(N3CCNCC3)cccc21 | inactive: -0.279 | inactive: -0.133 | inactive: -1.11
COc1cc2c(cc1O)CC1c3c(cc(O)c(OC)c3-2)CCN1C (stereo not drawn) [boldine] | inactive: -2.09 | inactive: -0.248 | inactive: 1.64
Oc1ccc2c(c1)C(Cc1c[nH]cn1)CC2 (stereo not drawn) | inactive: 0.714 | inactive: -0.59 | inactive: 0.116
O=C(c1ccc2c(c1)OCO2)N1CCC(C(=O)O)(c2ccccc2)CC1 | inactive: -0.968 | – | inactive: -0.656

SMILES | TEAD-luciferase reporter activity (compound concentration: 200 nM) | TEAD-luciferase reporter activity (compound concentration: 2 uM) | TEAD-luciferase reporter activity (compound concentration: 10 uM)
COC1=C(C)C(=O)C2=C(C1=O)[C@@H](COC(N)=O)[C@]1(OC)[C@H]3N[C@H]3CN21 [Mitomycin A] | inactive: -0.534 | inactive: -2 | inactive: 0.0624
c1ccc2c(c1)CC1NCC2c2ccccc21 (stereo not drawn) | inactive: -1.19 | inactive: 0.432 | inactive: 0.351
C[C@H](Nc1ncnc2[nH]cnc12)c1nc2ccc(F)cc2c(=O)n1-c1ccccc1 [Acalisib] | inactive: -1.86 | inactive: -0.754 | inactive: -0.073
CC(CCc1ccccc1)NC(C)C(O)c1cc(I)c(O)c(I)c1 (stereo not drawn) | inactive: -0.605 | inactive: -0.273 | inactive: 0.455
N[C@@H](Cc1ccc(N(CCCl)CCCl)cc1)C(=O)O [Melphaplex] | – | inactive: -1.26 | –
N[C@@H](Cc1ccc(N(CCCl)CCCl)cc1)C(=O)O | inactive: -0.369 | – | inactive: -0.49
CN1CCC2C(c3ccccc3)Cc3c(ccc(O)c3O)C2C1 (stereo not drawn) | inactive: -1.77 | inactive: 1.22 | inactive: 0.431
c1cnc2c(c1)CC1(CN3CCC1CC3)O2 (stereo not drawn) | inactive: -0.165 | inactive: -1.46 | inactive: -0.195
O=C(C1CCc2cc(Cl)c(Cl)cc21)N1CCSC[C@H]1CN1CCCC1 (stereo partly drawn) | inactive: -1.64 | inactive: -0.955 | inactive: -0.964
N=C1NC(=O)C(c2ccccc2)(c2ccccc2)N1 | inactive: -1.32 | inactive: 0.061 | inactive: -0.464
COC(=O)[C@@]12OC[C@]34[C@H]([C@@H](O)[C@@H]1O)[C@@]1(C)CC(=O)C(O)=C(C)[C@@H]1C[C@H]3OC(=O)[C@H](OC(=O)/C=C(\C)C(C)C)[C@@H]24 [Bruceantin] | inactive: 0.0972 | inactive: -1.85 | inactive: -1.42
C[N+]1(CCCS(=O)(=O)O)[C@@H]2CC[C@H]1CC(OC(=O)C(CO)c1ccccc1)C2 (stereo partly drawn) | inactive: -1.28 | inactive: -0.449 | inactive: -0.753
CCN1C(=O)CN2CCOC2(c2ccccc2F)c2cc(Cl)ccc21 (stereo not drawn) | inactive: 0.217 | inactive: -1.71 | inactive: -0.39
COCC(=O)N1CCCC1C(=O)N1CCC(N2Cc3ccccc3C2=O)CC1 (stereo not drawn) | inactive: -2.31 | – | inactive: 0.413
CO[C@H]1CC=C2CCN3CCC4=C(CC(=O)OC4)[C@]23C1 [Dihydro-beta-erythroidine] | inactive: -1.65 | inactive: -0.283 | inactive: 3.27
C[C@@H]1CN(Cc2ccc(F)cc2)CCN1C(=O)COc1ccc(Cl)cc1NC(N)=O | inactive: 0.0167 | inactive: -2.33 | inactive: 0.836
CCN(CC)C(C)C=C(c1cccs1)c1cccs1 (stereo not drawn) [Diethylthiambutene] | inactive: -0.426 | inactive: 1.11 | inactive: 0.405
CCOC(=O)C1N=C(c2ccccc2F)c2cc(Cl)ccc2N(C(=O)NC)C1=O (stereo not drawn) [ethyl carfluzepate] | inactive: -0.788 | inactive: -0.713 | inactive: 0.501
C#CCN[C@H]1CCc2ccc(OC(=O)N(C)CC)cc21 | inactive: -0.958 | inactive: 0.717 | inactive: 0.626

Reference: the supplement of paper PMC10735217
